Among all 52,000 sequences or so, about 210 (0.4%) were called active.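 The calls were made as follows: active = gene whose silencing raises cell survival under the drug, median off-target-corrected z-score across its silencing RNAs 2 or more; inactive = the rest.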 The list shows a part of the results.
Test: Resistance to Poly (ADP-Ribose) Polymerase inhibitor: Gene Identification via Genome-wide siRNA Screen
Details: mouse BRCA2 R2336H ES cells, olaparib, CellTiter-Glo viability; hits give high values
Summary of the method: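 Mouse BRCA2 R2336H ES cells were reverse-transfected with siRNA (20 nM final), treated at 48 h with 500 nM olaparib, and read by CellTiter-Glo after 72 h. Scores: MAD-based z per siRNA, median per gene, seed off-target correction.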
With GGACACUAAGGUUCCCAACTT against Polr2j the z-score was inactive: -0.685.
With “GGGAAUCCAAGGAGAGCAUTT against C530009C10Rik” the z-score was inactive: 0.391.
In the case of “GGGAUGUGUACCGUUACAUTT against 1700010I14Rik”, the z-score is reported as inactive: 0.13.
With GGUCUCCUUCUGCUUGAAGTT against Prx the z-score was inactive: -0.965.
For “GGCUAUGAGGCAAGUCAACTT against 2410003C20Rik”, the z-score was inactive: -1.84.
In the case of CCAAAUUGCUGACUUAUUCTT against Ccna2, the z-score is reported as inactive: 0.232.
In the case of GGCCAUUUGCAUGAUUAUUTT against Tas2r108, the z-score is reported as inactive: -1.93.
With GGAAAAAAGUCCUUGAGUCTT against Plscr3 the z-score was inactive: 0.44.
With GGACAGUGAGGUGAACUUCTT against Enc1 the z-score was inactive: 1.02.
For GCCACGGAAAACAGCGAGATT against Gpr65, the z-score was inactive: -0.00509.
In the case of “GGCAUUAUGUCAUUGCUGATT against 5430428G01Rik”, the z-score is reported as inactive: 0.786.
With GGAGUGAUGUUCAUUCUGGTT against Tm4sf9 the z-score was inactive: -0.00641.
With UGUCGACUGUCAAGAACUATT against Lyzl6 the z-score was inactive: 0.0939.
In the case of GGGUUUUCGGGAGAUCUGUTT against Ltbp4, the z-score is reported as inactive: 3.18.
With GGCAGAAAGCAGAGCUUCUTT against Igfbp3 the z-score was inactive: -0.841.
In the case of CGUACUGGGCCUAUGUUGATT against Nrarp, the z-score is reported as inactive: 1.02.
In the case of GCCAAAGUCUUGCUAUGUGTT against Ube1l, the z-score is reported as inactive: -1.56.
With CCUUCUGGCCCAGACGAUUTT against Pxmp2 the z-score was inactive: -0.173.
With GCUAUUAUUGCAAUGUCAGTT against Trim38 the z-score was inactive: -0.00296.
For GCUCAGAUGACAAUUUGCCTT against Gbx2, the z-score was inactive: -0.738.
For GGCCUGAAGGGCAUUUACATT against Slc25a11, the z-score was inactive: -0.0765.
With “GCAGGAGGUUCGUGAUAUUTT against 1810010O14Rik” the z-score was inactive: -0.98.
With “GGAUACACACAGAGAAUAUTT against 2810441C07Rik” the z-score was inactive: 0.02.
With GAGCUUUGUGCUGAACCUGTT against Lgals1 the z-score was inactive: 0.258.
For GCUUUUUUAUGCAUUCCAATT against Rock1, the z-score was inactive: -1.81.
With GGUGUUGUUCACGAGGACCTT against Nol5a the z-score was inactive: -0.444.
In the case of GCUUAGUGGUGUCAUCUCCTT against Stx1a, the z-score is reported as inactive: 0.946.
For GCACCUAACAAGUACUAAATT against Prei3, the z-score was inactive: -1.52.
In the case of GCCUUCAGGAAAAUCACUATT against Olfr849, the z-score is reported as inactive: -0.487.
In the case of GGACAAGGUUGUGUCUGUGTT against Olfr1508, the z-score is reported as inactive: 0.577.
For “GGAGUGAUGUCUUCACUGATT against 4631426E05Rik”, the z-score was inactive: -0.482.
For “CCAAUUUUGUCAUAGGACATT against 1100001H23Rik”, the z-score was inactive: 0.138.
With “GGGACCUACAUUACAAUUUTT against D11Ertd530e” the z-score was inactive: -0.62.
For CGAAACUUACCAGGAGUCGTT against Ttyh2, the z-score was inactive: 1.92.
For “GGAUCCAUUAGUCAAGAAGTT against 1110020M19Rik”, the z-score was inactive: 1.99.
With GGGAUUCCUUCAGCUUACCTT against Gng12 the z-score was inactive: -0.224.
In the case of “CGGCAGCAAUCAUCAGUAGTT against 2700017M01Rik”, the z-score is reported as inactive: 0.362.
With GGAGAAGGAGGUGAUAAUGTT against Sart1 the z-score was inactive: 0.088.
With “GCAAGAAUCAUCCGGUUACTT against 1810054D07Rik” the z-score was inactive: -1.29.
For “GGAUUAGGAUCAGCAGGAUTT against 2610203E10Rik”, the z-score was inactive: -1.62.
For CGUCAAUGCUCACUUAAUUTT against Zfp612, the z-score was inactive: -1.13.
With UUUCGAUCCUUUGAUUGAGTT against Olfr482 the z-score was inactive: 1.03.
With GCUAAAACGAACCACUAUGTT against Abhd9 the z-score was inactive: -0.657.
With GCUAGAAGUCAACAAAUACTT against Timp3 the z-score was inactive: -0.231.
With GCUCAGUUCUCUGUCUUGUTT against Olfr107 the z-score was inactive: -0.627.
For CCAUCAUUGGUGAAUCCCUTT against Gnai1, the z-score was inactive: -0.374.
With GGAUCUUCGGACCUAUCUGTT against Bin1 the z-score was inactive: -2.26.
In the case of GGAAGAAGGAACAUGAUCUTT against Mrpl52, the z-score is reported as inactive: 0.64.
With GGGCUUUGAUGUCAUGAAGTT against Drg2 the z-score was inactive: -0.543.
With GGAGAUCAUUAAAAAGCUGTT against Pcaf the z-score was inactive: 1.34.
With CCAUCAAACUAAGACAAUCTT against Ckt2 the z-score was inactive: -0.306.
For “CCCAUUUGCUCUGUGGAUCTT against 1300017K07Rik”, the z-score was inactive: -0.00892.
For GGCAGGACAUUCUCAAAUCTT against DXImx39e, the z-score was inactive: -0.171.
With GGUAUCCACUGUGCCAACCTT against Ush2a the z-score was inactive: -0.547.
For CGCAGAAGCUAAUAAACAGTT against Psmb6, the z-score was inactive: -1.52.
In the case of GGUCCUGGACUUCAUGCUATT against Galnt6, the z-score is reported as inactive: -0.771.
In the case of GCCAAUACGGGUGAACAAGTT against Sf3b4, the z-score is reported as inactive: -2.44.
With GCCAGUUCUAGGGUAAUGGTT against Cnr2 the z-score was inactive: 2.84.
For GGAUGGCUUUAAUAGUACUTT against Zfp106, the z-score was inactive: -0.301.
In the case of CCAUGUUAGAACUGGGACUTT against AI851790, the z-score is reported as inactive: 0.0399.
With GGCAUUCUUUCUUCAAUACTT against Ibsp the z-score was inactive: 0.325.
In the case of “GGGAAGAAAAAGAGCAUAUTT against 4930429A22Rik”, the z-score is reported as inactive: -0.173.
For GGCACUUGCUAUCAGCAAGTT against Cdc6, the z-score was inactive: -0.536.
In the case of CCUUUACUGUCACAAGCCGTT against Rgl2, the z-score is reported as inactive: 1.22.
For “CGAUCAAAAAAAUCGUGUGTT against 4933411K20Rik”, the z-score was inactive: -0.688.
In the case of “GGUAUACACAUGAAAACCATT against 3110023B02Rik”, the z-score is reported as inactive: 2.35.
For GCUAAUCACUGAAUGCUUCTT against Sca10, the z-score was inactive: 1.24.
For “GGACAACAGAAGACCUGUUTT against D10Bwg0940e”, the z-score was inactive: -1.97.
With GGCUUCACUCUGAAGAAUUTT against Nab2 the z-score was inactive: -1.41.
For GGAGUCAGUCCUUAAGCCUTT against Trim30, the z-score was inactive: -0.154.
For GCACCUUUGAAUGUGAAGUTT against Ccl2, the z-score was inactive: -0.122.
For CCCAUUAACCACUCCUAAATT against AI851790, the z-score was inactive: 1.63.
With CCUGACAGUACCAAAAAAUTT against Pax4 the z-score was inactive: 1.2.
With “CCCGACUGAAUGCUCGGAUTT against 4931406I20Rik” the z-score was inactive: -0.572.
For CCUUGGUUGUAUCCAUUUUTT against Cnot10, the z-score was inactive: -1.04.
With GUACUAGUGGUGACUGCAUTT against Olfr462 the z-score was inactive: -1.48.
In the case of GGUAACAUCCUAUAAAUAGTT against Arl5, the z-score is reported as inactive: 0.164.
In the case of GCACAAGCGUGGAACACAUTT against Dctn2, the z-score is reported as inactive: -2.91.
In the case of GCAUUCUAUACUAUCGUCATT against Olfr314, the z-score is reported as inactive: 1.5.
With “GGUUGGAACAAAAUCUUUATT against 3830408P04Rik” the z-score was inactive: 1.06.
With GGAGCUACACACAUAGGAATT against Clrf the z-score was inactive: 0.0183.
For GGUAAAAGUGGAACAAGAGTT against Irak3, the z-score was inactive: 0.596.
For “GGAUCAAAUCAAGAAGAUGTT against 2210412K09Rik”, the z-score was inactive: -0.814.
For GCAAGUACCAUGGACCAUGTT against Mbp, the z-score was inactive: 1.46.
For GGUGCAAUGCAAACUCUACTT against Cldn19, the z-score was inactive: -1.8.
For GGCACCAUUCUGAAUCAGATT against Ddx50, the z-score was inactive: -0.952.
In the case of GCACAACAUAAGAAGGUGGTT against Klk14, the z-score is reported as inactive: 2.45.
In the case of GGACACAACUCAUUUUCAGTT against Prg3, the z-score is reported as inactive: 0.45.
For “CCUAGAGAGACAUAUUGUUTT against E130203B14Rik”, the z-score was inactive: -0.888.
With GGACUUCAAGGAUAGUGAGTT against Osm the z-score was inactive: 0.178.
With GGAUCUUCGUCAACAAGCATT against Zmynd10 the z-score was inactive: 0.879.
In the case of CCAAGGACGGCCUUACACUTT against D2Wsu81e, the z-score is reported as inactive: -0.136.
For “GGAUUCUGCCUGAUCAAUGTT against 1110008F13Rik”, the z-score was inactive: -1.08.
In the case of CGCGGAGUCACUACUAGAGTT against BC027373, the z-score is reported as inactive: 0.228.
For CGAGAAUACAUUGAGGAGUTT against Hook2, the z-score was inactive: -0.29.
In the case of GGUGGCAGAGUUGUUAUUUTT against Ppp2r2d, the z-score is reported as inactive: 2.2.
For GCUCACCAUCAAAUCAGUGTT against Ceacam14, the z-score was inactive: -1.53.
In the case of CCAGACCUAUACUAUGAAUTT against Ttc15, the z-score is reported as inactive: -0.225.
For GCCAGGCAUCUACUUCAUUTT against Pep4, the z-score was inactive: 2.68.
In the case of GCAAGUAAAUAUGAGAACATT against Plxna4, the z-score is reported as inactive: -0.0479.
In the case of CCGGUUCAGAUUUGGCUAATT against Icam4, the z-score is reported as inactive: -0.517.
With GUAUGUUGACAUUUGCCUGTT against Olfr113 the z-score was inactive: 0.603.
For GCAGGGAGUGGUUUUAUGATT against Hoxb9, the z-score was inactive: -1.08.
In the case of GCCGUCUCUGUGUCACAAATT against Sirt1, the z-score is reported as inactive: -1.7.
